Experimental data from paper doi:10.1101/2024.04.30.591961.
Read-outs that look alike come from different tables or passages of the source. No constants are given. Whether binding was seen depends on the method and setting. For some of these results: Binding seen in cells or lysates may run through a third protein. Some entries that bind do so weakly or less than the wild type. For some of these results: Where a sequence is shown, tags or fusion partners need not be part of it.

The chains behind the UniProt entries cited, without tags or fusion partners. Where a name states a change or a piece, a line headed by the entry shows the natural chain unless it says otherwise. A line that says so, or that is headed by a name, gives the form on record, which may keep a tag or linker.
UniProt Q5I0X4: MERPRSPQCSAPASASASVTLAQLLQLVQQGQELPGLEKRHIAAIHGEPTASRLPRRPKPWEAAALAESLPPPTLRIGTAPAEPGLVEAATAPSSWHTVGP
HsPEX39(4A) (Q5I0X4, form named): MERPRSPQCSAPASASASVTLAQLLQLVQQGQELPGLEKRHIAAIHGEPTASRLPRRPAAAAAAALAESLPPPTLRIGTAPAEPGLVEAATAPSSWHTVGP
HsPEX39 (ΔN,4A) (Q5I0X4, form named): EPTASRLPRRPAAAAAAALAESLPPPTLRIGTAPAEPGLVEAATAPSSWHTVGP
UniProt Q92968: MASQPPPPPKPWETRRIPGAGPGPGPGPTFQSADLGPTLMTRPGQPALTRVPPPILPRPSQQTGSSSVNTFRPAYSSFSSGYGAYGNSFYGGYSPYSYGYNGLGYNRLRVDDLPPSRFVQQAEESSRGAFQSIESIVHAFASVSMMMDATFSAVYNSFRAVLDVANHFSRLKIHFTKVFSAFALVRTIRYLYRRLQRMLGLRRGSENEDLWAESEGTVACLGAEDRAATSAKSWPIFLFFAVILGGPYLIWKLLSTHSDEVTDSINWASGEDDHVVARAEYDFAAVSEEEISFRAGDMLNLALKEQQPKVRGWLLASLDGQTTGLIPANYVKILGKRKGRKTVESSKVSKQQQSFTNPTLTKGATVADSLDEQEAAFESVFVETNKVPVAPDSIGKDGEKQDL

Assays:
[1] = target: T1, radiolabeled H6PEX7 (human) (UniProt O00628); test: native gel or EMSA
T1 sequence (chain, [^35S]methionine label): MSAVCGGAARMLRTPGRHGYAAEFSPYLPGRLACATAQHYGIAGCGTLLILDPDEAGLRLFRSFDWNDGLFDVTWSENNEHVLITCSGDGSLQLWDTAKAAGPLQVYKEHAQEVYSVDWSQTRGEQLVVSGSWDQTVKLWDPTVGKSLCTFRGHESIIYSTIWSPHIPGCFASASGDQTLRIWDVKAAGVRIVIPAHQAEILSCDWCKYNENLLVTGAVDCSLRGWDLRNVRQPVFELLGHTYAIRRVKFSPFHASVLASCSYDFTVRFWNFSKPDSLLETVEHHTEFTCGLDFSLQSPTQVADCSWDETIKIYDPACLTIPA

[2] = target: T1, radiolabeled H6PEX7 (human); test: native gel or EMSA; remark: listed apart in the source
[3] = target: T1, radiolabeled H6PEX7 (human); test: native gel or EMSA; remark: listed apart in the source
[4] = target: T1, radiolabeled H6PEX7 (human); test: native gel or EMSA; remark: listed apart in the source
[5] = target: T1, radiolabeled H6PEX7 (human); test: native gel or EMSA; remark: listed apart in the source
[6] = target: T1, radiolabeled H6PEX7 (human); test: native gel or EMSA; remark: listed apart in the source
[7] = target: T1, radiolabeled H6PEX7 (human); test: native gel or EMSA; remark: listed apart in the source
[8] = target: T1, radiolabeled H6PEX7 (human); test: native gel or EMSA; remark: listed apart in the source
[9] = target: T1, radiolabeled H6PEX7 (human); test: native gel or EMSA; remark: listed apart in the source
[10] = target: T1, radiolabeled H6PEX7 (human); test: native gel or EMSA; remark: listed apart in the source
[11] = target: T1, radiolabeled H6PEX7 (human); test: native gel or EMSA; remark: listed apart in the source
PEX7-FLAG-HA (human) [12] = target: T2, PEX7-FLAG-HA (human) (UniProt O00628); test: co-IP
T2 sequence: T1 sequence (chain, [^35S]methionine label)

PEX7-FLAG-HA (human) [13] = target: T2, PEX7-FLAG-HA (human); test: co-IP; remark: listed apart in the source
HsPEX39-FLAG-HA (human) = HsPEX39-FLAG-HA (human) (UniProt Q5I0X4); test: co-IP

Substance: GST-HsPEX39 (from UniProt Q5I0X4 1-101)
- binding [1]: binds
- binding [2]: binds
- binding [3]: binds
- binding [4]: binds
- binding [5]: binds
- binding [6]: binds
- binding [7]: binds

Substance: NtPEX13 (from UniProt Q92968 1-36) (domain or fragment)
- binding [2]: binds
- binding [8]: binds
- binding [9]: binds

Substance: HsPEX39(4A) (from UniProt Q5I0X4 1-101)
- binding [2]: no binding (tested: 4 ug in 20 uL)
- binding [10]: no binding (tested: 4 ug in 20 uL)
- binding [11]: no binding (tested: 4 ug in 20 uL)

Substance: HsPEX39(ΔN) (from UniProt Q5I0X4 48-101) (domain or fragment)
- binding [2]: binds
- binding [10]: binds

Substance: HsPEX39 (ΔN,4A) (from UniProt Q5I0X4 48-101) (domain or fragment)
- binding [2]: no binding (tested: 4 ug in 20 uL)
- binding [10]: no binding (tested: 4 ug in 20 uL)
- binding [11]: no binding (tested: 4 ug in 20 uL)

Substance: endogenous HsPEX39 (from UniProt Q5I0X4 1-101)
- binding (PEX7-FLAG-HA (human) [12]): binds
- binding (PEX7-FLAG-HA (human) [13]): binds

Substance: endogenous HsPEX13 (from UniProt Q92968 1-403)
- binding (HsPEX39-FLAG-HA (human)): no binding
- binding (PEX7-FLAG-HA (human) [13]): binds
